Laboratory results reported in PubChem BioAssay AID504467 (National Center for Advancing Translational Sciences (NCATS), 2011).
Out of some 330,000 compounds screened, about 7,700 (2.3%) were called active. The shares of active, inactive and inconclusive entries below differ from those in the screen. Calls follow the shape of the dose curve; as a rule, active = well fitted inhibition curve with a large enough effect; inconclusive = small, poorly fitted or top-dose-only effect, or effect the other way; inactive = flat fitted curve, though single readings scatter. Where the call is inconclusive, the potency comes from a doubtful curve fit.

Assay: qHTS screen for small molecules that inhibit ELG1-dependent DNA repair in human embryonic kidney (HEK293T) cells expressing luciferase-tagged ELG1; also: nearly all actives have a fitted effect of over 55% in size
Conditions: HEK293T ELG1-luciferase reporter, luminescence, 16 h, DNA damage induced by 5-fluorouridine; activity change, negative = inhibition: at 46.1 µM (top of the series)
In short: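 HEK293T cells expressing luciferase-tagged ELG1 (2,000/well) received 5-Fluorouridine plus compound or DMSO for 16 hr at 37 °C. Luciferase was read by ONE-Glo luminescence after 30 min at room temperature.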
% is scaled to controls: 0 for no effect and ±100 for the full control effect; potency is read from the fitted curve at half-maximal effect.

| SMILES | activity change, negative = inhibition | Potency |
| --- | --- | --- |
| Cc1nc2ccccc2c(=O)n1/N=C/c1ccc([N+](=O)[O-])o1 | inactive: -13.9% | – |
| COc1cc(/C=C/C(=O)Nc2cc(S(=O)(=O)N3CCOCC3)ccc2N2CCCC2)cc(OC)c1OC | – | inconclusive: 29.1 µM [activator, single point] |
| O=C(CSCc1cccc(Cl)c1)OCc1nc2ccsc2c(=O)[nH]1 | inactive: 4.25% | – |
| Cc1cccc2sc(NC(=O)CSc3cn[nH]n3)nc12 | inactive: -3.06% | – |
| CCCc1cc(=O)oc2cc(C)cc(OCC(=O)NCCN3CCOCC3)c12 | inactive: 4.21% | – |
| Cc1cc(C(=O)NC(=S)Nc2ccccc2N2CCOCC2)ccc1[N+](=O)[O-] | – | inconclusive: 29.1 µM [inhibitor, single point] |
| COc1ccc(N(C)S(=O)(=O)c2cccc(C(=O)NC3CCCC(C)C3C)c2)cc1 (stereo not drawn) | – | inconclusive: 23.1 µM [inhibitor, single point] |
| Cc1nc(N/N=C\c2ccc3c(c2)OCO3)sc1C | – | inconclusive: 18.3 µM [activator, partial curve] |
| COc1cccc(NC(=O)CCSc2ccc3ccccc3n2)c1 | – | inconclusive: 32.6 µM [activator, single point] |
| COc1ccc(NC(=O)C2CCC(C(C)(C)C)CC2)cc1S(=O)(=O)N1CCCCC1 (stereo not drawn) | – | inconclusive: 20.6 µM [inhibitor, single point] |
| CC1=NN(C(N)=S)C(=O)C1N=Nc1ccc(O)cc1 (stereo not drawn) | inactive: 2.45% | – |
| COc1ccc(-n2c(C)c(C)c3c(NCCCO)ncnc32)cc1 | – | inconclusive: 18.3 µM [activator, partial curve] |
| Cc1cc(C)cc(OCC(=O)Nc2ccc3c(c2)C(=O)c2ccccc2C3=O)c1 | – | inconclusive: 20.6 µM [activator, partial curve, poor fit] |
| CCCc1cc(=O)n2[nH]c(-c3ccc(C)cc3)cc2n1 | – | inconclusive: 7.08 µM [activator, partial curve] |
| Cc1ccccc1C(=O)NNC(=S)NC(=O)c1cccnc1 | inactive: 2.4% | – |
| O=C(CNC(=S)N(Cc1ccccc1)Cc1ccccc1F)NCCc1ccccc1 | – | inconclusive: 29.1 µM [inhibitor, partial curve, poor fit] |
| N#Cc1nc(Cc2cccc3ccccc23)oc1NCc1ccc(F)cc1 | – | inconclusive: 29.1 µM [inhibitor, single point] |
| CCOC(=O)c1c(NC2=NS(=O)(=O)c3ccccc32)sc2c1CCCCC2 | – | inconclusive: 18.4 µM [activator, partial curve, poor fit] |
| O=C(COc1ccccc1[N+](=O)[O-])c1ccccc1 | – | inconclusive: 29.1 µM [inhibitor, single point] |
| O=C(NCCNc1ccccc1[N+](=O)[O-])c1cc(F)c(F)cc1Cl | – | inconclusive: 12.6 µM [activator, partial curve] |
| COc1ccc(C(=O)Nc2ccc(S(=O)(=O)N3CCOCC3)cc2)cc1[N+](=O)[O-] | inactive: -11.5% | – |
| CC(C)(C)N1C(=O)c2ccccc2NC(=O)N1Cc1ccc(Br)cc1 | inactive: -1.66% | – |
| COc1cc(C(O)P(=O)(OCCC(C)C)c2ccc(N(C)C)cc2)cc(OC)c1OC (stereo not drawn) | inactive: 0.173% | – |
| COc1cc(C(=O)Nc2nccs2)ccc1OCc1c(C)noc1C | – | inconclusive: 0.501 µM [inhibitor, partial curve, poor fit] |
| Cn1cc([N+](=O)[O-])c(C(=O)NC2CCCCCCC2)n1 | inactive: 11.8% | – |

| SMILES | activity change, negative = inhibition | Potency |
| --- | --- | --- |
| CCN(CC(=O)Nc1c(F)cccc1F)C(=O)c1ccc(C2SCCS2)cc1 | inactive: -12.8% | – |
| COc1ccc(-c2nnc(SCC(=O)c3ccc(C)o3)o2)cc1 | inactive: -1.99% | – |
| COc1ccc(NC(=O)CN(C)C(=O)c2cccc(S(=O)(=O)N3CCN(C)CC3)c2)cc1 | inactive: 13.7% | – |
| Cc1ccc(-n2nnnc2SCC(=O)c2cc(C)n(-c3cc(C)on3)c2C)c(C)c1 | – | inconclusive: 18.4 µM [inhibitor, single point] |
| COc1ccc(-n2c3c(c(=O)[nH]c2=O)C(NC(=O)c2ccncc2)(C(F)(F)F)C(=O)N3)cc1 (stereo not drawn) | inactive: 11.5% | – |
| COC(=O)c1ccc(N/C=C/C(=O)c2ccc(OC)c(OC)c2)cc1 | – | inconclusive: 29.1 µM [activator, single point] |
| CCOC(=O)c1cnc(-n2nc(C)cc2C)nc1NNc1nc(C)cc(C)n1 | – | active: 11.6 µM |
| CC1=C(C(=O)Nc2ccccc2C(=O)NCCCOC(C)C)SCCO1 | inactive: -12.3% | – |
| CCc1ccc(-c2cc(C(=O)Nc3ccc(S(=O)(=O)NC(C)=O)cc3)c3ccccc3n2)cc1 | – | inconclusive: 20.6 µM [activator, partial curve] |
| OC(c1ccccc1)(C1CCCCC1)C(CN1CCOCC1)c1ccccc1 (stereo not drawn) | inactive: -7.73% | – |
| Cn1c(CCNC(=O)c2ccc(F)cc2)nc2ccccc21 | inactive: -10.9% | – |
| COc1cc(/C=C/C(=O)N2CCN(c3n[nH]c(=O)[nH]c3=O)CC2)cc(OC)c1OC | – | inconclusive: 14.6 µM [inhibitor, single point] |
| CNC(=O)/C=C/c1cc(C(=O)c2ccc(Cl)cc2Cl)cn1C | inactive: -5.3% | – |
| CCCSc1ccc([C@@H]2[C@@H]3C(=O)N(C)C(=O)[C@@H]3[C@]3(C(=O)OC)CCCCN23)cc1OC | inactive: -1.12% | – |
| C=CCN1C(=O)c2ccc(C(=O)N(C)CC(=O)Nc3ccccc3C(F)(F)F)cc2C1=O | inactive: 25% | – |
| CCOC(=O)C1CCCN(C(=O)c2cc3c(=O)n(C)c4ccccc4c3n2C)C1 (stereo not drawn) | – | inconclusive: 25.9 µM [inhibitor, single point] |
| COCCn1ccc2c(OCC(=O)Nc3ccccc3OC)cccc2c1=O | – | inconclusive: 13 µM [inhibitor, partial curve, poor fit] |
| CCc1ccc(/C=C2\SC(=S)N(CCCC(=O)Nc3ccccc3C(=O)O)C2=O)cc1 | inactive: 11% | – |
| COc1ccc(/C=C/C(=O)NC(=S)Nc2ccccn2)cc1 | – | inconclusive: 5.17 µM [activator, partial curve] |
| COc1cccc(-c2nnn(CC(C)=O)n2)c1 | – | inconclusive: 20.6 µM [activator, partial curve] |
| Cc1ccc(OCc2ccc(C(=O)N3CCCC3)o2)cc1C | – | inconclusive: 3.26 µM [activator, single point] |
| COC(C[C@H](O)CC(=O)[C@H](C)OCc1ccccc1)OC | – | inconclusive: 20.6 µM [activator, partial curve, poor fit] |
| Cc1ccsc1/C=N/NS(=O)(=O)c1ccc([N+](=O)[O-])cc1 | inactive: -5.65% | – |
| O=C(Nc1ccc(N2CCOCC2)nc1N1CCOCC1)c1cccc(C(F)(F)F)c1 | inactive: 0% | – |
| O=c1c(Cl)c(N2CCC3(CC2)OCCO3)cnn1C12CC3CC(CC(C3)C1)C2 | inactive: -0.213% | – |

| SMILES | activity change, negative = inhibition | Potency |
| --- | --- | --- |
| Cc1nn(Cc2ccc(Cl)cc2)c(C)c1NC(=O)c1ccc([N+](=O)[O-])cc1 | – | inconclusive: 23.1 µM [inhibitor, partial curve, poor fit] |
| O=C1CS/C(=C/C(=O)c2cccc(Cl)c2)N1 | inactive: 16.9% | – |
| O=C(Cc1csc(-c2ccc(F)cc2)n1)Nc1cccc(S(=O)(=O)NC2=NCCC2)c1 | – | inconclusive: 20.6 µM [inhibitor, single point] |
| CN(C(=O)c1ccc2c(c1)OCO2)C1CCS(=O)(=O)C1 (stereo not drawn) | inactive: 14.2% | – |
| Cn1c(C(=O)N2CCCCCC2)cc2c(=O)n(C)c3ccccc3c21 | – | inconclusive: 20.6 µM [inhibitor, partial curve, poor fit] |
| CCS(=O)(=O)n1nc(-c2ccc(OC)cc2)nc1N | – | inconclusive: 29.1 µM [activator, single point] |
| COc1ccccc1N1CCN(C(=O)NC23CC4CC(CC(C4)C2)C3)CC1 | – | inconclusive: 14.6 µM [inhibitor, partial curve, poor fit] |
| CC(=O)N/C(=C/c1ccccc1)c1ccccc1 | – | inconclusive: 20.6 µM [activator, partial curve, poor fit] |
| CCN(CC)S(=O)(=O)c1ccc(N2CCOCC2)c(NC(=O)c2ccc(F)cc2)c1 | – | inconclusive: 29.1 µM [inhibitor, single point] |
| CCOC(=O)Nc1nnc(-c2cccc(OC)c2)s1 | inactive: 0.923% | – |
| Cc1oc(-c2ccc(Cl)cc2)nc1CN1CCC(C(=O)NCCCN2CCCC(C)C2)CC1 (stereo not drawn) | inactive: 6.15% | – |
| CCOc1cc(/C=N/NC(=O)c2nn(C)cc2Br)ccc1OCc1ccccc1 | – | active: 18.4 µM |
| CCCCOC(=O)Nc1ccc(N2CCCCC2)cc1 | – | inconclusive: 2.31 µM [activator, full curve] |
| CC(C)CN1C(=O)NC2(CCCc3ccccc32)C1=O (stereo not drawn) | inactive: -23.2% | – |
| CCCCNC(=O)C1CCN(Cc2ccc(OCc3ccccc3)cc2)CC1 | – | inconclusive: 18.4 µM [activator, partial curve] |
| CCCCn1c(O)c(N=Nc2ccccc2O)c2ccccc21 | inactive: 1.2% | – |
| CC(=O)c1sc(NC(=O)CCCc2nc3ccccc3c(=O)[nH]2)nc1-c1ccccc1 | – | inconclusive: 18.3 µM [inhibitor, partial curve, poor fit] |
| O=C(c1ccco1)N1CCN(C(=O)c2cnn3c(C(F)(F)F)cc(-c4cccs4)nc23)CC1 | – | active: 5.8 µM |
| Cc1ccc(S(=O)(=O)c2c(N)n(CCCO)c3nc4ccccc4nc23)cc1 | inactive: -9.61% | – |
| COc1ccc(N/C(=N\c2nc(C)cc(C)n2)NC(=O)C(C)C)cc1OC | – | inconclusive: 23.1 µM [inhibitor, single point] |
| Cc1ccc(S(=O)(=O)N(C)c2ccc(C(=O)N3CCc4ccccc4C3)cc2)cc1 | – | inconclusive: 29.1 µM [inhibitor, single point] |
| COc1ccc(CCNc2cc(N3CCN(C(=O)c4ccccc4F)CC3)ccc2[N+](=O)[O-])cc1OC | – | active: 4.11 µM |
| Cc1noc(C)c1COc1ccccc1C(=O)NC(C)c1ccc(Cl)cc1 (stereo not drawn) | inactive: 8.44% | – |

Single entries from the results shown.
Under Potency, `CC(=O)c1sc(NC(=O)CCCc2nc3ccccc3c(=O)[nH]2)nc1-c1ccccc1` is listed with inconclusive: 18.3 µM [inhibitor, partial curve, poor fit]
Under activity change, negative = inhibition, `Cc1noc(C)c1COc1ccccc1C(=O)NC(C)c1ccc(Cl)cc1` (stereo not drawn) is listed with inactive: 8.44%
Under activity change, negative = inhibition, `CN(C(=O)c1ccc2c(c1)OCO2)C1CCS(=O)(=O)C1` (stereo not drawn) is listed with inactive: 14.2%
